Assay results reported in paper PMC9098222.
No constants are given. Whether binding was seen depends on the method and setting. In cells and extracts the contact can be indirect. These calls come from enrichment with a bait or labelling near it, and not all partners need be listed. Values belong to the molecule of their own block, whether it stands above or below them.

The chains behind the UniProt entries cited, without tags or fusion partners.
UniProt O00459: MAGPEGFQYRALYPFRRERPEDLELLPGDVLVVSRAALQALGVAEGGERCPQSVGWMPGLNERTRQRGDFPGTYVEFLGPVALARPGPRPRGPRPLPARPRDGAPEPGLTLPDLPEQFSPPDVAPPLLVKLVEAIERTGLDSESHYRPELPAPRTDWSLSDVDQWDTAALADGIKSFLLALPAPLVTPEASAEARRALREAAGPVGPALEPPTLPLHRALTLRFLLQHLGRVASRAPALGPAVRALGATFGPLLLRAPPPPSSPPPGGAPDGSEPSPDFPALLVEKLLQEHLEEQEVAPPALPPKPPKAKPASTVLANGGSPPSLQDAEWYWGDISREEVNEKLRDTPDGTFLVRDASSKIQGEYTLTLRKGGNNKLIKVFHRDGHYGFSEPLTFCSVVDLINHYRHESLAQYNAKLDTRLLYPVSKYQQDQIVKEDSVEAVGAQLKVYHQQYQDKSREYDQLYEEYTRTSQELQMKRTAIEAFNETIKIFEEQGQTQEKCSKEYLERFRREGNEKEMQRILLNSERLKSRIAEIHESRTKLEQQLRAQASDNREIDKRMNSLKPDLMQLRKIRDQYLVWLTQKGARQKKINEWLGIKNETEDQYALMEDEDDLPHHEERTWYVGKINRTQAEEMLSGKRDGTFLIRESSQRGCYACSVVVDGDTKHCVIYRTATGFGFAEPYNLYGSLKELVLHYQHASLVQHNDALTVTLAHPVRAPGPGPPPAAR

Biological target: T1, IRS4 (WT)-PafA (human) (UniProt O14654)
T1 sequence: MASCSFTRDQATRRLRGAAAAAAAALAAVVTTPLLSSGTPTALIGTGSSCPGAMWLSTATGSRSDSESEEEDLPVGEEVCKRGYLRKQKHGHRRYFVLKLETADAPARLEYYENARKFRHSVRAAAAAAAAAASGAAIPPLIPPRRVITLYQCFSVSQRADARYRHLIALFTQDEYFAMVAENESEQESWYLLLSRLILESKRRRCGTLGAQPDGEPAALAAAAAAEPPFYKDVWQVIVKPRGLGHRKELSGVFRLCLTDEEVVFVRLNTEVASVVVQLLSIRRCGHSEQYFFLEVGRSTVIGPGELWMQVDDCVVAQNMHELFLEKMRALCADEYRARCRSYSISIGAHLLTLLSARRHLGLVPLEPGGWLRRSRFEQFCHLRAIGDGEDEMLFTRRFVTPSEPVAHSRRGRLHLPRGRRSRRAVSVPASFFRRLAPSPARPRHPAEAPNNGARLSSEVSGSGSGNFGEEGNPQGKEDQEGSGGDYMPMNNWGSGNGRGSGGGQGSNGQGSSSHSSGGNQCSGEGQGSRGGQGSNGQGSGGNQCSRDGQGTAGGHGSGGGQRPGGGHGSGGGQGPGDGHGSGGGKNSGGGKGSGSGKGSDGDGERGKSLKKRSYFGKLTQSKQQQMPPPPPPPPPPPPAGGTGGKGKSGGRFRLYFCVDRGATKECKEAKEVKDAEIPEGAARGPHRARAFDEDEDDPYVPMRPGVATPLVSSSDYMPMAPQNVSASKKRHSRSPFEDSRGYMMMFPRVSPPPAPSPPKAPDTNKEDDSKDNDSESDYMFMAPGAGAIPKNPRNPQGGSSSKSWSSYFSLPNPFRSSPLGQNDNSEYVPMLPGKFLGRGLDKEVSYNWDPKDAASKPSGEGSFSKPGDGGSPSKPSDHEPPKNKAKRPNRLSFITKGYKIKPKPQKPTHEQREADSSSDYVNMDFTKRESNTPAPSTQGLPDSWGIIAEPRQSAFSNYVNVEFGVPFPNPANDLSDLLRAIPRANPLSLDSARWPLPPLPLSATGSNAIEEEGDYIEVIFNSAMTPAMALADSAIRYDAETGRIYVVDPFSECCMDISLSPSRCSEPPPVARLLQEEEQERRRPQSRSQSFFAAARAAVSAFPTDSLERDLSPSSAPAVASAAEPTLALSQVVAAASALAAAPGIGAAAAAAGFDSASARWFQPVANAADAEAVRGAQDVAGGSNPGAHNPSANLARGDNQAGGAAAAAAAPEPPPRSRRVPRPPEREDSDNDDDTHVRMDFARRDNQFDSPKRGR
Experiment: proximity labelling; PUP-IT: IRS4 (WT)-PafA or IRS4 (YF)-PafA stably expressed in iPup OVCAR-5 cells, doxycycline 2 μg/ml and biotin 4 μM for 24 hr, tagged proteins identified by mass spectrometry, triplicates, LFQ intensity of WT against YF mutants

binding: binds
Molecule: PIK3R2 (p85β), endogenous in OVCAR-5 cells (from UniProt O00459 1-728)

binding: binds
B1: EBNA1 binding protein 2 (protein, UniProt Q99848 1-306)
chain: MDTPPLSDSESESDESLVTDRELQDAFSRGLLKPGLNVVLEGPKKAVNDVNGLKQCLAEFKRDLEWVERLDVTLGPVPEIGGSEAPAPQNKDQKAVDPEDDFQREMSFYRQAQAAVLAVLPRLHQLKVPTKRPTDYFAEMAKSDLQMQKIRQKLQTKQAAMERSEKAKQLRALRKYGKKVQTEVLQKRQQEKAHMMNAIKKYQKGFSDKLDFLEGDQKPLAQRKKAGAKGQQMRKGPSAKRRYKNQKFGFGGKKKGSKWNTRESYDDVSSFRAKTAHGRGLKRPGKKGSNKRPGKRTREKMKNRTH
